Laboratory results: doi:10.1101/2024.04.22.590512
Results are given in words; binding and its absence hold for the method and conditions named. In cells and extracts the contact can be indirect. A yes stands for co-enrichment or nearness to the bait. Other partners may have been found.

The chains behind the UniProt entries cited, without tags or fusion partners. Where a name states a change or a piece, a line headed by the entry shows the natural chain unless it says otherwise.
UniProt Q587B7: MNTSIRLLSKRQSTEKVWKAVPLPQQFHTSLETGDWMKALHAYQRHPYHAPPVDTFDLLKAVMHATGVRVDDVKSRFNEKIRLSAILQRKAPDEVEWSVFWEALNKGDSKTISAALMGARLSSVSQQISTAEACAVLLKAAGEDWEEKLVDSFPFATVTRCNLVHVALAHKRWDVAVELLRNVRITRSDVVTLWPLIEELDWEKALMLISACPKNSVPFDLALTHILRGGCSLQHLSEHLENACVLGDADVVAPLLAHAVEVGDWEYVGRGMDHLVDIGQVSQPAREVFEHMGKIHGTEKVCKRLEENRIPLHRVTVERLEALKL
UniProt Q57WZ1: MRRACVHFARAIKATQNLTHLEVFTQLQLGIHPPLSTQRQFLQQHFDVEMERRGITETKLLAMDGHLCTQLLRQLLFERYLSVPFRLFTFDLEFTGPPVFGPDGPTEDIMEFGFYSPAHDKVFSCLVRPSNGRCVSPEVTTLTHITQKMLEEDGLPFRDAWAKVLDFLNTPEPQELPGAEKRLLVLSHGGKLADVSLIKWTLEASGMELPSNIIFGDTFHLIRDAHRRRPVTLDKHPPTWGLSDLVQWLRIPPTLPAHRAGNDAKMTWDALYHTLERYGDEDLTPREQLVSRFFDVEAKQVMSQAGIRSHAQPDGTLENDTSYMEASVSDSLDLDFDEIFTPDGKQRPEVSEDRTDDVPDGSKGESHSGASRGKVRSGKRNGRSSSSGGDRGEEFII

Target: KP37 (Tb927.6.4510) (Trypanosoma brucei (endogenous in SmOx procyclic cells)) (UniProt Q587B7)
Test: affinity purification with mass spectrometry

binding: binds
Substance: KP45 (Tb927.3.1100) (from UniProt Q57WZ1)
